# Laboratory results from PubChem BioAssay AID743255 (National Center for Advancing Translational Sciences (NCATS), 2014).
# Amino acid sequences for entries named in this document (tags omitted). A change or cut given only in a name is not applied to a line headed by its entry.
# UniProt O94782: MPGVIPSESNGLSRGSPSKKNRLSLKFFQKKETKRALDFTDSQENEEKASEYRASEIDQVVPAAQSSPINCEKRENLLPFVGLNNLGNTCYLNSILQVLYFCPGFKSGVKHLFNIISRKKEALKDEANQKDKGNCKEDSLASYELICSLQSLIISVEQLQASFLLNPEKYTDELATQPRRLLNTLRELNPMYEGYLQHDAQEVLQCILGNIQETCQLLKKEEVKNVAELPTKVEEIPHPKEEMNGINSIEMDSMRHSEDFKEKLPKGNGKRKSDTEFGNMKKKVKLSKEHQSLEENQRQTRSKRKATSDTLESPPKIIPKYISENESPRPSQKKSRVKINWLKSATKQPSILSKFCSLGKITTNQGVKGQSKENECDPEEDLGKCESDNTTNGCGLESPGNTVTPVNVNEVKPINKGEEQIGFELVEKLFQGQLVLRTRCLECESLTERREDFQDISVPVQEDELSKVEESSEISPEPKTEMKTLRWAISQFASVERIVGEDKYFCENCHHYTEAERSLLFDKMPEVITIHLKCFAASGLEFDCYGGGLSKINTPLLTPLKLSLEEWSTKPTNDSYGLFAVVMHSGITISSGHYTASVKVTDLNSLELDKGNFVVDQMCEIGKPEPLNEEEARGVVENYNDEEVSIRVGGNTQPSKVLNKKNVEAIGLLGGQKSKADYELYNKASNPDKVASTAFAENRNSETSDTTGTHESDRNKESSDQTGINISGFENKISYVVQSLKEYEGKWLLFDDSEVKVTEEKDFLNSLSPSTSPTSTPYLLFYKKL
# Several values for one entry are separate records, joined by “and”; a condition that tells them apart may be missing. Equal values may be shown once. Screen size: about 390,000 compounds; about 910 (0.23%) were called active. Inconclusive results, whose numbers are uncertain, are shown with a selection of clear calls. The call rests on the fitted dose curve; in most records, active means well fitted inhibition curve with a large enough effect; inconclusive means small, poorly fitted or top-dose-only effect; inactive means no such curve, though single readings can be large or run the other way. Where the call is inconclusive, the potency comes from a doubtful curve fit.
# Target: Ubiquitin carboxyl-terminal hydrolase 1 (Homo sapiens) (UniProt O94782)
# Test: Inhibitors of USP1/UAF1: Primary Screen; further: nearly all actives have a fitted effect of over 60% in size
# Conditions: recombinant USP1/UAF1, Ub-Rhodamine cleavage fluorescence; activity change, negative = inhibition: at 57.1 µM (top of the series)
# Outline: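 High-throughput fluorogenic screen: 1nM USP1/UAF1 complex, Ub-Rho substrate 150nM final, 50mM HEPES pH 7.8 with 0.5mM EDTA, 0.1 mg/ml BSA, 1mM TCEP and 0.01% Tween-20.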
# On the % scale 0 is the no-effect control and ±100 the full control effect; potency means the concentration at half of the fitted maximal effect.
SMILES,Potency,"activity change, negative = inhibition"
CCn1cc2nc(SCC(=O)Nc3ccc(C)cc3C)n(Cc3ccc(C)cc3)c(=O)c2n1,"inconclusive: 20 µM [inhibitor, partial curve, poor fit]",
Cc1ccc(S(=O)(=O)NN2CCCCCC2)cc1,"inconclusive: 3.16 µM [inhibitor, partial curve]",
O=C(CSc1ccc(F)cc1)Nc1cccc(S(=O)(=O)N2CCOCC2)c1,"inconclusive: 7.08 µM [inhibitor, single point]",
CCCc1ccc(C2Sc3ccccc3NC3=C2C(=O)c2ccccc23)cc1 (stereo not drawn),,inactive: -16.2%
CC1CC2=C(NC(=S)NC2c2ccccc2F)/C(=C/c2ccccc2F)C1 (stereo not drawn),,inactive: -7.34%
CCS(=O)(=O)N1CCC(n2c(C(F)(F)F)nc3cccnc32)CC1,"inconclusive: 7.08 µM [inhibitor, partial curve]",
COc1cccc(CNC(=O)C23CN(Cc4ccccc4)CC2C(c2ccc([N+](=O)[O-])cc2)=NO3)c1 (stereo not drawn),,inactive: -30.4%
N#CC1=C(N)SC(N)=C(C#N)C1Cc1ccccc1,"inconclusive: 0.251 µM [inhibitor, full curve, poor fit]",
Cc1cc(C)c(OCCNC(=O)c2ccccc2Sc2ccccc2C#N)c(C)c1,"inconclusive: 15.8 µM [inhibitor, partial curve]",
CN(C)CCCN(Cc1ccccc1)C(=S)Nc1ccc(F)c(Cl)c1,,inactive: -7.83%
CCN(CC)c1cc(C)c2cc(NC(=O)c3ccccc3OC)ccc2n1,"inconclusive: 44.7 µM [inhibitor, partial curve, poor fit] and inconclusive: 39.8 µM [inhibitor, partial curve]",
C=CS(=O)(=O)N(Cc1ccccc1)[C@H](CO)CC(C)C,"inconclusive: 89.1 µM [inhibitor, partial curve, poor fit]",
CCCCN(CCCC)S(=O)(=O)c1ccc(N2CCCC2=O)c([N+](=O)[O-])c1,,inactive: -20%
CC(C)(C)c1cc(C2=CSC3=NCCN23)cc(C(C)(C)C)c1O,,inactive: -14.9%
CC(=O)Nc1ccc(/C=N/NC(=O)CNS(=O)(=O)c2ccccc2)cc1,"inconclusive: 7.08 µM [inhibitor, single point]",
COc1ccc(CN(C)C(=O)c2cccc(S(=O)(=O)N3CCN(c4ccccc4)CC3)c2)c(OC)c1OC,,inactive: 1.98%
Cc1nn(-c2ccccc2)c2nc(C3CC3)cc(C(=O)Nc3ccccc3F)c12,"inconclusive: 15.8 µM [inhibitor, partial curve, poor fit]",
OC(COc1ccc(Cl)c2ccccc12)CN1CCN(c2ccccn2)CC1 (stereo not drawn),"inconclusive: 28.2 µM [inhibitor, single point]",

# Given with tabs: part of the list above.
SMILES	Potency	activity change, negative = inhibition
CCn1cc2nc(SCC(=O)Nc3ccc(C)cc3C)n(Cc3ccc(C)cc3)c(=O)c2n1	inconclusive: 20 µM [inhibitor, partial curve, poor fit]	
Cc1ccc(S(=O)(=O)NN2CCCCCC2)cc1	inconclusive: 3.16 µM [inhibitor, partial curve]	
